PubChem BioAssay AID1508588 | Peter MacCallum Cancer Centre, 2020

Screen: 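Knock-downs boosting vemurafenib effects on melanoma cell growth or lactate release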 (primary screen)
Cell system: human WM266.4 melanoma cells (BRAF V600 mutant)
Knock-down reagent: siRNA pool against human genes, 40 nM
Duration: 96 h from transfection to read-out
Challenge: vemurafenib 300 nM (about IC25), added 48 h after transfection, for 48 h; comparison arm got DMSO vehicle only
Detection: 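Cell gain (DAPI nuclei at end minus before drug, mean of two replicates) and medium lactate by absorbance per cell, both as ratio to non-targeting siRNA, also grouped into fold-change classes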
Reading the numbers: cell gain with vemurafenib: higher = more cell gain than with non-targeting siRNA; lactate per cell with vemurafenib: higher = more lactate made per cell
Call rule: 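Enhancement is called by pairing each knock-down's vehicle-arm and drug-arm fold-change classes for viability or glycolysis; which class combinations qualify is not given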
Calls: active = enhances vemurafenib effect; inactive = no enhancement seen
Shown is an unselected part of about 18,000 deposited reagents. Over the whole deposit, 790 (4.4%) were called active. 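Calls rest on a combination of fold-change classes in drug and vehicle arms, not all shown here.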 The numbers tell different reagents against one gene apart.

With knock-down of FAM222B (GeneID 55731) the results were cell gain with vemurafenib 0.21; lactate per cell with vemurafenib 2.75; inactive.
With knock-down of AIFM1 (GeneID 9131), the record shows cell gain with vemurafenib 0.43; lactate per cell with vemurafenib 1.01; inactive.
Silencing of MCEE (GeneID 84693) gave: cell gain with vemurafenib 0.65; lactate per cell with vemurafenib 1; inactive.
FKBPL (GeneID 63943) scored cell gain with vemurafenib 0.37; lactate per cell with vemurafenib 1.19; inactive.
After knock-down of C1orf116 (GeneID 79098), the screen gave cell gain with vemurafenib 0.87; lactate per cell with vemurafenib 1.14; inactive.
Knock-down of BARHL2 (GeneID 343472) came out at: cell gain with vemurafenib 1.22; lactate per cell with vemurafenib 0.86; inactive.
For PATJ (GeneID 10207), the values are cell gain with vemurafenib 0.54; lactate per cell with vemurafenib 0.84; inactive.
With knock-down of EPB41 (GeneID 2035), the record shows cell gain with vemurafenib 1; lactate per cell with vemurafenib 0.51; inactive.
After knock-down of NR2F1 (GeneID 7025), the record shows cell gain with vemurafenib 1.26; lactate per cell with vemurafenib 0.77; inactive.
With knock-down of PIK3R4 (GeneID 30849), the record shows cell gain with vemurafenib 0.85; lactate per cell with vemurafenib 0.64; inactive.
With knock-down of CLTC (GeneID 1213), the record shows cell gain with vemurafenib 0.47; lactate per cell with vemurafenib 2.18; inactive.
For ZNF276 (GeneID 92822), the values are cell gain with vemurafenib 0.63; lactate per cell with vemurafenib 0.82; inactive.
Knock-down of GRPEL2 (GeneID 134266) resulted in: cell gain with vemurafenib 0.83; lactate per cell with vemurafenib 0.85; inactive.
SPMIP9 (GeneID 200523) scored cell gain with vemurafenib 0.27; lactate per cell with vemurafenib 1.05; inactive.
For UBE2E1 (GeneID 7324), the entry reads cell gain with vemurafenib 0.94; lactate per cell with vemurafenib 0.59; inactive.
FBXO15 (GeneID 201456) gave cell gain with vemurafenib 0.8; lactate per cell with vemurafenib 0.82; inactive.
TTC1 (GeneID 7265) gave cell gain with vemurafenib 0.64; lactate per cell with vemurafenib 1.18; inactive.
After knock-down of FAM167B (GeneID 84734), the record shows cell gain with vemurafenib 0.57; lactate per cell with vemurafenib 0.42; inactive.
With knock-down of GNB1L (GeneID 54584), the record shows cell gain with vemurafenib 0.36; lactate per cell with vemurafenib 1.56; inactive.

Individual results from above:
Entry of CLTC (GeneID 1213) under “lactate per cell with vemurafenib”: 2.18
C1orf116 (GeneID 79098), call → inactive

Next reagents follow.
Knock-down of ARSG (GeneID 22901) gave: cell gain with vemurafenib 0.17; lactate per cell with vemurafenib 1; inactive.
CPAP (GeneID 55835) gave cell gain with vemurafenib 0.22; lactate per cell with vemurafenib 1.31; inactive.
Against SCML1 (GeneID 6322), the entry reads cell gain with vemurafenib 0.21; lactate per cell with vemurafenib 0.99; inactive.
With knock-down of KCTD13 (GeneID 253980), the screen gave cell gain with vemurafenib 0.63; lactate per cell with vemurafenib 0.49; active.
C19orf48P (GeneID 84798) scored cell gain with vemurafenib 0.48; lactate per cell with vemurafenib 1.29; inactive.
For KLHL6 (GeneID 89857), the values are cell gain with vemurafenib 0.62; lactate per cell with vemurafenib 1.32; inactive.
After knock-down of MTHFD2L (GeneID 441024), the screen gave cell gain with vemurafenib 0.95; lactate per cell with vemurafenib 0.8; inactive.
After knock-down of CTNNA2 (GeneID 1496), the record shows cell gain with vemurafenib 0.58; lactate per cell with vemurafenib 1.42; inactive.
After knock-down of KRTAP6-2 (GeneID 337967), the screen gave cell gain with vemurafenib 0.36; lactate per cell with vemurafenib 1.21; inactive.
After knock-down of RASSF6 (GeneID 166824), the screen gave cell gain with vemurafenib 0.72; lactate per cell with vemurafenib 0.74; inactive.
Depletion of PREX2 (GeneID 80243) came out at: cell gain with vemurafenib 0.67; lactate per cell with vemurafenib 1.24; inactive.
For TMEM128 (GeneID 85013), the entry reads cell gain with vemurafenib -0.09; lactate per cell with vemurafenib 0.36; active.
Depletion of PARP10 (GeneID 84875) resulted in: cell gain with vemurafenib 0.85; lactate per cell with vemurafenib 1.23; inactive.
Depletion of PPM1J (GeneID 333926) came out at: cell gain with vemurafenib 0.48; lactate per cell with vemurafenib 0.31; inactive.
With knock-down of MYO18A (GeneID 399687) #1, the screen gave cell gain with vemurafenib 0.47; lactate per cell with vemurafenib 1.1; inactive.
Silencing of MYO18A (GeneID 399687) #2 came out at: cell gain with vemurafenib 0.42; lactate per cell with vemurafenib 1.16; inactive.
Against INPP5K (GeneID 51763) the deposit lists cell gain with vemurafenib 0.95; lactate per cell with vemurafenib 0.7; inactive.
ARHGEF17 (GeneID 9828) gave cell gain with vemurafenib 0.65; lactate per cell with vemurafenib 0.99; inactive.
PHB1 (GeneID 5245) scored cell gain with vemurafenib 0.43; lactate per cell with vemurafenib 2; inactive.
Silencing of COL6A2 (GeneID 1292) gave: cell gain with vemurafenib 0.16; lactate per cell with vemurafenib 0.38; inactive.
For PAGR1 (GeneID 79447) the deposit lists cell gain with vemurafenib 0.04; lactate per cell with vemurafenib 1.78; inactive.
